Assay results taken from patent publication US11643436B2, “Polypeptide compound, pharmaceutical composition, preparation method and application thereof” (CHENGDU SINTANOVO BIOTECHNOLOGY CO., LTD., priority 2019, dated 2023).
pEC50: −log10 of the molar value. At least one compound was matched to its structure with a doubt left.

Legend:
Format in all cases: cell-based
human δ-opioid receptor = human δ-opioid receptor (Homo sapiens (Human), UniProt P41143); assay: Forskolin-stimulated cAMP inhibition in HEK293 cells, δ-opioid receptor; details: HEK293 cells highly expressing human δ-opioid receptor, read-out: DOR (EC50)
Experimental: (§1) Forskolin can stimulate the release of cAMP from HEK293 cells with high expression of human κ (or μ, or δ)-opioid receptors. […] The efficacy of the compounds of the invention as κ-opioid receptor agonists was determined by measuring the ability of the compounds of Examples to inhibit adenylate cyclase activity.
(§2) Cell culture: The HEK293 cell line highly expressing human κ (or μ, or δ)-opioid receptor were cultured in DMEM medium containing 10% FBS.
(§3) Stimulation: the test compound was 4-fold diluted in a gradient manner to obtain 10 concentrations, and 50 nl of each was transferred to a 384-well plate, and then 10 nl Forskolin was added; the cells were digested, re-suspended, and counted; and then 10 μl of cell suspension (5×10^5 cell/mL) was added, and the cells were mixed gently, and incubated at 23° C. for 60 minutes.
(§4) Detection: cAMP Assay Kit (Cisbio) was used, cAMPD2 and Anti-cAMP conjugate were added, and the resultant mixture was incubated for 1 h at room temperature. The plate was read using envision (Perkin Elmer) and EC50 was obtained by means of fitting with a four-parameter equation.

human κ-opioid receptor = human κ-opioid receptor (Homo sapiens (Human), UniProt P41145); assay: Forskolin-stimulated cAMP inhibition in HEK293 cells, κ-opioid receptor agonism; details: HEK293 cells highly expressing human κ-opioid receptor, read-out: KOR (EC50)
Experimental: as §1, §2, §3, §4

human μ-opioid receptor = human μ-opioid receptor (Homo sapiens (Human), UniProt P35372); assay: Forskolin-stimulated cAMP inhibition in HEK293 cells, μ-opioid receptor; details: HEK293 cells highly expressing human μ-opioid receptor, read-out: MOR (EC50)
Experimental: as §1, §2, §3, §4

In the case of `CC(C)C[C@@H](NC(=O)[C@@H](Cc1ccccc1)NC(=O)[C@H](N)Cc1ccccc1)C(=O)N[C@H](CCCCN)C(=O)NCCB(O)O` [TM-26], the pEC50 (human δ-opioid receptor) was < 5.00, the pEC50 (human κ-opioid receptor) was 11.09 and the pEC50 (human μ-opioid receptor) was < 5.00.
